Assay results reported in US9655362B2, “Fungicidal composition and method for controlling plant diseases” (ISHIHARA SANGYO KAISHA, LTD., priority 2003, dated 2017).
Where “and” joins values, the source holds several entries; their conditions need not be identical. Equal values may be shown once. The name of at least one read-out is uncertain.

Tested on: Sphaerotheca cucurbitae
Experiment: Test on preventive effect against cucumber powdery mildew
Assay type: in vivo
Design: scale not given here
Conditions: other fungicide alone
Description: Cucumber (cultivar: Suyo) was cultivated in a plastic pot having a diameter of 7.5 cm, and when it reached 1.5-leaf stage, 10 ml of a chemical solution having the compound of the present invention adjusted to a prescribed concentration, was applied by a spray gun. After the chemical solution dried, a suspension of conidia of Sphaerotheca cucurbitae was sprayed and inoculated and maintained in a constant temperature chamber at 20° C. From 6 to 11 days after the inoculation, the area of sporulation was investigated, and the disease rate was determined in the same manner as in Test Example 3, and the results are shown in Tables 54 to 96. The average lesion area in the non-treated plot was determined in the same manner as for the treated plot except that water was applied by a spray gun instead of the chemical solution.
Further, theoretical values by the Colby's formula are shown in brackets in Tables 54 to 96.

Clc1ccc(CSC(Cn2cncn2)=Nc2ccc(Cl)cc2Cl)cc1 [Imibenconazole] was tested, and the Disease rate (concentration 4 ppm) was 100 and 80.4 and the Disease rate (concentration 16 ppm) was 65.7 and 60.0 and 80.2.
